The data set concerns SW480 cells. The data set can be described thus: Illumina microarray gene expression analysis. Format: cell-based. As to conditions: p=0.02. The method, then: A microarray analysis using an Illumina® array was performed in triplicate to investigate differential gene expression in cells treated with a Wnt pathway inhibitor. […] In vitro transcription reactions were incubated overnight (14 hr). Labeled cRNA was hybridized to Illumina® Human-6 v3 BeadChips (Illumina, San Diego, Calif.) at 58° C. overnight, according to the Illumina® Whole-Genome Gene Expression Protocol for BeadStation (Doc. #11226030.rev.C, Illumina Inc.). The hybridized BeadChip was stained with streptavidin-Cy3 (Amersham™, PA43001) for visualization and scanned with an Illumina® BeadArray Reader. The scanned images were imported into BeadStudio 3.1.3.0 (Illumina Inc) for extraction and quality control. A criterion of 0.5-fold change in expression was applied to the analysis. […] A list of differentially expressed genes of interest is given below in tables 1 and 2. […] Many known Wnt target genes (column 3) were influenced in treated cells. Some genes were influenced that are also affected in Ls174T colorectal cancer cells expressing an inducible dominant negative form of TCF-4 (column 4) (van de Wetering et al., Mol. Cell. Biol. (2008) 28(8), p. 2732-44). Other influenced genes that are important for cell cycle control and other genes correlated to regulated canonical Wnt signaling are also shown. […]

These results are taken from patent publication US8883827B2, “Azole derivatives as WTN pathway inhibitors” (Oslo University Hospital HF, priority 2009, dated 2014).

On to `COc1ccc(-n2c(SCc3nc(-c4ccc(C)cc4)no3)nnc2-c2ccncc2)cc1` [Compound 1], for which the “final hit numbers (differentially expressed genes)” value stood at 881 hits (25 μM compound) and 384 hits ([…] compound (so in the source)).
